Measured values taken from PMC7374751.
No constants are given. Whether binding was seen depends on the method and setting. Binding can be weak; no strength is given. Where a sequence is shown, tags or fusion partners need not be part of it.

Amino acid sequences for entries named in this document (tags omitted). A change or cut given only in a name is not applied to a line headed by its entry.
UniProt O14672: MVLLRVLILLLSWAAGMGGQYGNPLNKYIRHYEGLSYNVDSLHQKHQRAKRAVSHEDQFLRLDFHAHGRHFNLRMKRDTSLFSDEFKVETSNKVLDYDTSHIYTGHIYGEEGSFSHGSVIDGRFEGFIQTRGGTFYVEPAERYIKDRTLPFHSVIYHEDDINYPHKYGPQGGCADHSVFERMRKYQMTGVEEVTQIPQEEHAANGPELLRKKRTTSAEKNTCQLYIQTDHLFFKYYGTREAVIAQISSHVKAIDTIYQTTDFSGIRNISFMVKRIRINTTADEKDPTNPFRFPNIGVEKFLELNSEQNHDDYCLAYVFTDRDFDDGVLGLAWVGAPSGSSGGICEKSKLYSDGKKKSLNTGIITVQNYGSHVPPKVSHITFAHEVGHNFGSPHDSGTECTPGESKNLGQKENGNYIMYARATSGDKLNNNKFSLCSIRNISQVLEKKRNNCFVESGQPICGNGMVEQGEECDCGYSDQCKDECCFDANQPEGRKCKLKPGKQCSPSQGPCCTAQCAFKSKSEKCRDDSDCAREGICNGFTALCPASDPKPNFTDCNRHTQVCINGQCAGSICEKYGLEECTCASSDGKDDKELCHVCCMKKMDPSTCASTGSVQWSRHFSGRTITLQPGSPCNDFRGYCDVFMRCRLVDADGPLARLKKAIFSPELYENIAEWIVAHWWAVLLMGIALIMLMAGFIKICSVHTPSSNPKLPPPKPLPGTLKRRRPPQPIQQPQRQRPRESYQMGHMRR
UniProt Q9UNA0: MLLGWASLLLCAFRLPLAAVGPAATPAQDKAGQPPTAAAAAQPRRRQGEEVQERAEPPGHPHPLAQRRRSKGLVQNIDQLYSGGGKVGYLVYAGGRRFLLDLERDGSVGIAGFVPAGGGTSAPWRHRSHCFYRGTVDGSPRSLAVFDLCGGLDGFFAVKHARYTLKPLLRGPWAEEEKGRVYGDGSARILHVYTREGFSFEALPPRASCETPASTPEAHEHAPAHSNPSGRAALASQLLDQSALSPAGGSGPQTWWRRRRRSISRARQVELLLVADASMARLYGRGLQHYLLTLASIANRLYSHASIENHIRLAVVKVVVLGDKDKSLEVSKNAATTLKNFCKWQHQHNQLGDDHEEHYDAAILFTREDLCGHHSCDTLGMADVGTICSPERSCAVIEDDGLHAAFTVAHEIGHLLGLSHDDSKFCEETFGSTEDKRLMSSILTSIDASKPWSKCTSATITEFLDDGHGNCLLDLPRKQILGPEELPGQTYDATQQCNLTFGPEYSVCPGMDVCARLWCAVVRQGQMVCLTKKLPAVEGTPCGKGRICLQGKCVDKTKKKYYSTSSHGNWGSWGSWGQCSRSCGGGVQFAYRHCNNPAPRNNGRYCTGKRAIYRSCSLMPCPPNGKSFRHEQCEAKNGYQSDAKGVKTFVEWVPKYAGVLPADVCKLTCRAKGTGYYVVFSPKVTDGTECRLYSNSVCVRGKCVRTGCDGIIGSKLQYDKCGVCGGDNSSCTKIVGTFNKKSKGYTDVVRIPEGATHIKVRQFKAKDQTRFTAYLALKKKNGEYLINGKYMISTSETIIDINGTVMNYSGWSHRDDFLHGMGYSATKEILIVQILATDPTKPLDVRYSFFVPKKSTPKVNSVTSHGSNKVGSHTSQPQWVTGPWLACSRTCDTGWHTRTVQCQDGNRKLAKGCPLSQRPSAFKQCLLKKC
UniProt O75173: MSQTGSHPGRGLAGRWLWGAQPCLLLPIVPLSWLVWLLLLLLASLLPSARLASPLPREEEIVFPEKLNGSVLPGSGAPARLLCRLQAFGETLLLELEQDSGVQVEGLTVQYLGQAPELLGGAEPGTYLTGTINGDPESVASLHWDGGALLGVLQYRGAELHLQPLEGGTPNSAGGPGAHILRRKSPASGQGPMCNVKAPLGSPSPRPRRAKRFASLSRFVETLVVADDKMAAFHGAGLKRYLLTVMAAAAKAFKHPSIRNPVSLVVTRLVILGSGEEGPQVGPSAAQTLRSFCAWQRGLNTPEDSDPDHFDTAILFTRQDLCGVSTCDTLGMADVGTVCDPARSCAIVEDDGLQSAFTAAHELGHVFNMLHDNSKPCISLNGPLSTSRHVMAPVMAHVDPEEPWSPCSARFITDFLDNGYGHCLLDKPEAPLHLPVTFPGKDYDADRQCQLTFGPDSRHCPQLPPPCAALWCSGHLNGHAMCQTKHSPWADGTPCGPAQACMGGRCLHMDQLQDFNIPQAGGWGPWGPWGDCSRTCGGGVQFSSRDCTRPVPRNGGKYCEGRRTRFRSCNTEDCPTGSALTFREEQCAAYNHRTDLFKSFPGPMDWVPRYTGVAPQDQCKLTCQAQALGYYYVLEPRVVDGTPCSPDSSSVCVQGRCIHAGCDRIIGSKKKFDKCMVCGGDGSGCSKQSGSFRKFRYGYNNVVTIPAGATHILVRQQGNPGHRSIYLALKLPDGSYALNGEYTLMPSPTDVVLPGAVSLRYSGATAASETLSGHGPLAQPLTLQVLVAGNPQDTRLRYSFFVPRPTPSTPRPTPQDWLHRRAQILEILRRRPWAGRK
UniProt P03956: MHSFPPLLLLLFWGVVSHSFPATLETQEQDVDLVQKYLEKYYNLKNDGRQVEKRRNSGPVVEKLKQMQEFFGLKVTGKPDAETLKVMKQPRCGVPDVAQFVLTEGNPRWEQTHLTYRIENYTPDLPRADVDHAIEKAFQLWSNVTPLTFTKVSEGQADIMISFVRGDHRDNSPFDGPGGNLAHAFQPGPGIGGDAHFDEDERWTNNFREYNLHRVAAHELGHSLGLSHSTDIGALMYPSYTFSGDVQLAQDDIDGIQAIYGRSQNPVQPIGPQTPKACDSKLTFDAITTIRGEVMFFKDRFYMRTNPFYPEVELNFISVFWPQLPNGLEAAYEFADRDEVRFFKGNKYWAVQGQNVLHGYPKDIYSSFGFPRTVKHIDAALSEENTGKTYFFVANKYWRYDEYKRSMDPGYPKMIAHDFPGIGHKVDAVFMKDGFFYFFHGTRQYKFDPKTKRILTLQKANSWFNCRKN

How the values were obtained:
Test in all cases: complex pre-formed in solution, read by SPR on immobilised LRP-1; equimolar enzyme and TIMP (5-80 nM) incubated 1 h at 37 °C before injection over LRP-1; the enzyme-TIMP pair is told by the changed binding of the mixture; both purified
[1] = target: ADAM10 ectodomain (UniProt O14672)
[2] = target: FLAG-tagged ADAMTS-5 lacking the C-terminal thrombospondin domain (ADAMTS5-2) (UniProt Q9UNA0)
[3] = target: ADAMTS5-4, truncated FLAG-tagged ADAMTS-5
[4] = target: FLAG-tagged ADAMTS-4 lacking the C-terminal spacer domain (ADAMTS4-2) (UniProt O75173)
[5] = target: catalytic domain of human MMP-1 (MMP-1ΔC) (human) (UniProt P03956)
[6] = target: full length MMP-1 (human)

Measured: binding

B1: FLAG-tagged TIMP-3 (protein, UniProt P35625 24-211)
chain: CTCSPSHPQDAFCNSDIVIRAKVVGKKLVKEGPFGTLVYTIKQMKMYRGFTKMPHVQYIHTEASESLCGLKLEVNKYQYLLTGRVYDGKMYTGLCNFVERWDQLTLSQRKGLNYRYHLGCNCKIKSCYYLPCFVTSKNECLWTDMLSNFGYPGYQSKHYACIRQKGGYCSWYRGWAPPDKSIINATDP
binds: all assays above
